Source: US8088927B2, “Fungicide N-cycloalkyl-benzyl-amide derivatives” (Bayer Cropscience AG, priority 2006, dated 2012)
Some results were stated once for a whole list of compounds, not compound by compound.

Experiments:
[1] = test system: Mycosphaerella graminicola; assay: In vivo preventive test on Mycosphaerella graminicola (wheat leaf spot); settings: dose of 500 ppm, preventive spray, wheat plants, grading 21 to 28 days after contamination
[2] = test system: Alternia brassicae; assay: In vivo preventive test on Alternia brassicae (leaf spot of crucifers); settings: dose of 500 ppm, preventive spray, radish plants, grading 6 to 7 days after contamination
[3] = test system: Pyrenophora teres; assay: In vivo preventive test on Pyrenophora teres (barley net blotch); settings: dose of 500 ppm, preventive spray, barley plants, grading 12 days after contamination
[4] = test system: Sphaerotheca fuliginea; assay: In vivo preventive test on Sphaerotheca fuliginea (cucurbit powdery mildew); settings: dose of 500 ppm, preventive spray, gherkin plants, grading 21 days after contamination

SMILES	good (at least 70%) or total protection [1]	good (at least 70%) or total protection [2]	good (at least 70%) or total protection [3]	good (at least 70%) or total protection [4]
COc1nn(C)cc1C(=O)N(Cc1c(C)cc(C)cc1C)C1CC1 [Compound 303]	at least 70%	at least 70%	at least 70%	
O=C(c1sccc1I)N(Cc1ccc(Cl)cc1Cl)C1CC1 [Compound 58]	at least 70%	at least 70%		
Cc1nc(C(=O)N(Cc2c(Cl)cc(Cl)cc2Cl)C2CC2)c(C)o1 [Compound 160]	at least 70%	at least 70%		at least 70%
CCc1nn(C)c(F)c1C(=O)N(Cc1c(Cl)cc(Cl)cc1Cl)C1CC1 [Compound 328]	at least 70%	at least 70%		at least 70%
Cc1nn(C)cc1C(=O)N(C1CC1)C(C)c1ccc(Cl)cc1Cl (centres unmarked) [Compound 373]		at least 70%		
Cc1nn(C)c(F)c1C(=O)N(Cc1cccc(OC(F)(F)F)c1)C1CC1 [Compound 308]	at least 70%	at least 70%	at least 70%	
Cc1cc(C)c(CN(C(=O)c2sc(C)nc2C(F)F)C2CC2)c(C)c1 [Compound 187]	at least 70%	at least 70%	at least 70%	
COC(=O)C(c1ccc(Cl)cc1Cl)N(C(=O)c1c(C)nn(C)c1F)C1CC1 (centres unmarked) [Compound 389]	at least 70%	at least 70%		at least 70%
Cn1cc(C(=O)N(Cc2c(Cl)cc(Cl)cc2Cl)C2CC2)c(C(F)(F)F)c1 [Compound 99]	at least 70%	at least 70%		at least 70%
CCc1nn(C)c(F)c1C(=O)N(Cc1ccc(Cl)cc1Cl)C1CC1 [Compound 322]	at least 70%	at least 70%		at least 70%
Cc1nn(C)c(F)c1C(=O)N(Cc1ccc(Br)cc1)C1CC1 [Compound 422]	at least 70%	at least 70%	at least 70%	
Cc1nn(C)c(F)c1C(=O)N(Cc1ccc(Oc2ccc(Cl)cc2)cc1)C1CC1 [Compound 432]		at least 70%	at least 70%	
Cc1nn(C)c(F)c1C(=O)N(Cc1ccc(Br)cc1F)C1CC1 [Compound 400]	at least 70%	at least 70%	at least 70%	
Cn1cc(C(=O)N(C2CC2)C(C#N)c2ccc(Cl)cc2Cl)c(C(F)F)n1 (centres unmarked) [Compound 486]	at least 70%	at least 70%		at least 70%
O=C(c1sccc1I)N(Cc1c(Cl)cc(Cl)cc1Cl)C1CC1 [Compound 59]		at least 70%		
COc1nn(C)cc1C(=O)N(Cc1c(Cl)cccc1Cl)C1CC1 [Compound 452]		at least 70%		at least 70%
COc1nn(C)cc1C(=O)N(Cc1c(Cl)cc(Cl)cc1Cl)C1CC1 [Compound 255]		at least 70%		at least 70%

SMILES	good (at least 70%) or total protection [1]	good (at least 70%) or total protection [2]	good (at least 70%) or total protection [3]	good (at least 70%) or total protection [4]
Cc1nn(C)c(F)c1C(=O)N(Cc1ccc(Oc2ccc(C(F)(F)F)cc2)cc1)C1CC1 [Compound 431]		at least 70%	at least 70%	
Cc1nn(C)c(F)c1C(=O)N(Cc1ccc(OC(F)(F)F)cc1)C1CC1 [Compound 433]	at least 70%	at least 70%	at least 70%	
Cc1nn(C)c(F)c1C(=O)N(C1CC1)C(C)c1ccc(Cl)cc1Cl (centres unmarked) [Compound 263]	at least 70%	at least 70%	at least 70%	
Cn1cc(C(=O)N(Cc2c(Cl)cccc2Cl)C2CC2)c(C(F)(F)F)c1 [Compound 137]	at least 70%	at least 70%		at least 70%
CCn1nc(C)c(C(=O)N(Cc2c(Cl)cccc2C(F)(F)F)C2CC2)c1F [Compound 438]	at least 70%	at least 70%		at least 70%
Cc1nn(C)c(F)c1C(=O)N(Cc1ccc(Cl)c(Cl)c1Cl)C1CC1 [Compound 274]	at least 70%	at least 70%	at least 70%	
CCC(c1ccc(Cl)cc1Cl)N(C(=O)c1c(C)nn(C)c1F)C1CC1 (centres unmarked) [Compound 386]	at least 70%	at least 70%		at least 70%
Cn1cc(C(=O)N(Cc2ccc(C(F)(F)F)cc2)C2CC2)c(C(F)(F)F)n1 [Compound 260]	at least 70%		at least 70%	at least 70%
CC(c1ccc(C(F)(F)F)cc1)N(C(=O)c1cn(C)nc1C(F)(F)F)C1CC1 (centres unmarked) [Compound 357]	at least 70%		at least 70%	at least 70%
CCC(c1cc(Cl)cc(Cl)c1)N(C(=O)c1c(C)nn(C)c1F)C1CC1 (centres unmarked) [Compound 415]	at least 70%		at least 70%	at least 70%
Cc1nc(C(F)(F)F)c(C(=O)N(C2CC2)C(C)c2ccc(Cl)cc2Cl)s1 (centres unmarked) [Compound 178]	at least 70%		at least 70%	at least 70%
COc1nn(C)cc1C(=O)N(Cc1ccc(Cl)cc1Cl)C1CC1 [Compound 251]		at least 70%		at least 70%
CCn1nc(C)c(C(=O)N(Cc2c(Cl)cccc2Cl)C2CC2)c1F [Compound 439]	at least 70%	at least 70%		at least 70%
COc1nn(C)cc1C(=O)N(C1CC1)C(C)c1ccc(C(F)(F)F)cc1 (centres unmarked) [Compound 356]	at least 70%		at least 70%	at least 70%
Cn1cc(C(=O)N(Cc2cc3c(cc2Cl)OCO3)C2CC2)c(C(F)(F)F)c1 [Compound 114]	at least 70%		at least 70%	at least 70%
COc1nn(C)cc1C(=O)N(Cc1ccc(OC(F)(F)F)cc1)C1CC1 [Compound 463]	at least 70%		at least 70%	at least 70%
